Measurements published in US20190086302A1, “COMPOSITION FOR PREPARING BIOLOGICAL MATERIAL HAVING EXCELLENT LIGHT TRANSMISSIVITY AND USE OF COMPOSITION” (RIKEN, priority 2016, published 2019).
The name of at least one read-out is uncertain.

System: bovine coagulated blood
Assay: Decoloring screening: heme eluted from PFA-fixed bovine coagulated blood, absorbance of supernatant
Conditions: Table 2, 10 wt % aqueous solution, 37° C. overnight; for 700 nm calibrated 420 nm Average: decoloring activity OD420-OD700 of supernatant
Method: A high-throughput screening system for evaluating the decoloring ability of various compounds was constructed. The screening system involved adding an aqueous solution of each compound to bovine coagulated blood and then measuring the absorbance of heme collected in the supernatant.
Specifically, to bovine blood, an equal amount of 8% PFA solution was added, and reacted at 4° C. overnight. The mixed liquid was centrifuged at 1500×g for 5 minutes, and the supernatant containing PFA was discarded. Then, the same amount of PBS as the original volume of blood was added to prepare a coagulated blood sample. To 150 μL of 10 wt % aqueous solution of each compound, 50 μL of the coagulated blood sample was added, and reacted at 37° C. overnight. The reaction solution was centrifuged at 1500×g for 5 minutes, and then 100 μL of the supernatant was added to a plate so as to be subjected to absorbance measurement. A sample which is suspended in water instead of being dissolved in the water has a weak decoloring effect, but none the less has a high absorbance value. […]

Structure (SMILES) | Integrated value 500-700 nm Average (listed as #0398) | 700 nm calibrated 420 nm Average (listed as #0398) | Integrated value 500-700 nm Average (listed as #0661) | 700 nm calibrated 420 nm Average (listed as #0661)
C[N+](C)(C)Cc1ccccc1.[OH-] [#03887, Benzyltrimethylammonium hydroxide] | 1.77 | 2.09 | – | –
CCCCCCCCCCCC[N+](C)(C)CCCS(=O)(=O)O [#0694, Dodecyldimethyl(3-sulfopropyl)ammonium hydroxide] | – | – | 1.70 | 2.10
